Source: PubChem BioAssay AID504375 (National Center for Advancing Translational Sciences (NCATS), 2011)
The whole screen tested about 1,600 compounds, of which about 25 (2%) were called active. Not shown: some 7% with an inconclusive outcome. Calls follow the shape of the dose curve; as a rule, active = well fitted inhibition curve with a large enough effect; inconclusive = small, poorly fitted or top-dose-only effect, or effect the other way; inactive = no such curve, though single readings can be large or run the other way. The list shows a part of the results.

Chains of the proteins cited; added tags and fusions are not shown.
UniProt Q01196, whole entry, looked up: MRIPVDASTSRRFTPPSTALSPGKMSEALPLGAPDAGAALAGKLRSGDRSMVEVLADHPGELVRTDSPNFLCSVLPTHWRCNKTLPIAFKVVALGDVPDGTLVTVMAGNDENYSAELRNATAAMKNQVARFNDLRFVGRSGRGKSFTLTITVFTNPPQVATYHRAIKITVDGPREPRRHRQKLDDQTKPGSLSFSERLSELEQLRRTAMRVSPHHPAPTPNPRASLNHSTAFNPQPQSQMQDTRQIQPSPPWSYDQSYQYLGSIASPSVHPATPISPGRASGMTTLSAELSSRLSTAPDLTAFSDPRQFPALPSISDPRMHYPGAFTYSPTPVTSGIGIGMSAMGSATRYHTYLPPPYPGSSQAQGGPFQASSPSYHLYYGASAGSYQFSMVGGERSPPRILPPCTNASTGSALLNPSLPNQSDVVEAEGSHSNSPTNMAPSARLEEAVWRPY
UniProt Q13951, whole entry, looked up: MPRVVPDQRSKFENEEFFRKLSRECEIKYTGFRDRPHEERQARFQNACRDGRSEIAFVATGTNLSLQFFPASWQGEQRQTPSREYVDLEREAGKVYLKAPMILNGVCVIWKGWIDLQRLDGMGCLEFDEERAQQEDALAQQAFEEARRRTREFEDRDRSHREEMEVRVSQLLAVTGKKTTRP

Each compound was assayed against Runt-related transcription factor 1 (Homo sapiens) + Core-binding factor subunit beta (Homo sapiens) (UniProt Q01196+Q13951) (assay: qHTS Assay for Compounds Blocking the Interaction Between CBF-beta and RUNX1 for the Treatment of Acute Myeloid Leukemia: Hit Validation with Orthogonal Assay). Conditions: CBFbeta-RUNX1 binding orthogonal assay, biochemical; series mostly up to 41 µM; activity change, negative = inhibition: at the top concentration.
Method in brief: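 This is an orthogonal TR-FRET assay. His6-CBF-beta and biotin-RUNX1 (30 nM each) were preincubated with compound for 30 min, then Tb-anti-His antibody (0.44 ng) and streptavidin-XL665 (5 nM) were added. The signal was read after 90 min.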
% is scaled to controls: 0 for no effect and ±100 for the full control effect; potency is read from the fitted curve at half-maximal effect.

Activity change, negative = inhibition, inactive:
O=C(NC(=S)Nc1ccccc1N1CCCC1)c1ccco1 3.85%, CCN(CCS(=O)(=O)c1ccc(Cl)cc1)C(=O)Nc1ccccc1 4.43%, NC(=S)N/N=C/c1ncc(C(F)(F)F)cc1Cl 12.6%, CN(C)c1ccc(/C=N/N2CCN(c3ccccn3)CC2)cc1 15.1%, COc1ccccc1C1=NOC(COC(=O)c2ccc([N+](=O)[O-])cc2)C1 (stereo not given) 54.7%, Brc1ccc(C2=Nn3c(Cn4nnc5ccccc54)nnc3SC2)cc1 -8.99%, Fc1ccc(-c2cc(-c3cccs3)cc(-c3ccccc3)n2)cc1 -0.905%, CC1=Nc2ccccc2N=C(NC(=O)CSC(=S)N2CCCCC2)C1c1ccccc1 (stereo not given) -8.42%, N#Cc1cnn(-c2ccccc2)c1NC(=O)CN1CCN(c2ccccc2)CC1 6.88%, CCOC(=O)c1nnn2c1nc(N1CCN(C)CC1)c1ccccc12 4.32%, O=C(O)/C(=C\c1cn(-c2ccccc2)nc1-c1cccnc1)NC(=O)c1ccccc1 8.88%, Cc1nnn(C23C[C@@H]4C[C@@H](CC(C(=O)N5CCN(c6ccccc6)CC5)(C4)C2)C3)n1 2.34%, Cc1onc(-c2ccccc2)c1C(=O)NC(=S)NNC(=O)c1ccco1 -16.1%, O=C(Nc1ccccc1)Nc1ccc2ccccc2c1 12.4%, O=C(Nc1ccccc1F)Oc1cccc(OC(=O)Nc2ccccc2F)c1 6.04%, CCOC(=O)CNC(=O)c1cccnc1Oc1ccc(Cl)cc1 7.14%, Cc1ccccc1OCC(=O)Nc1nnc(C2CCCCC2)s1 0.404%, COc1cc(NC2CCCCC2O)c2nc(-c3ccc(Cl)cc3)ccc2c1 (stereo not given) 35%, N#Cc1cnn(-c2ccccc2)c1NC(=O)CN1CCOCC1 -4.99%, COc1ccc(CCNC(=O)C(=O)NCC2CCNCC2)cc1OC 3.1%, C=CCN=C1S/C(=C/c2ccc([N+](=O)[O-])cc2)C(=O)N1CC=C 5.33%, Cc1onc(-c2ccccc2)c1C(=O)c1ccccc1 0.795%, CC1CCN(C2CCN(C(=O)c3ccccc3F)CC2)CC1 14.9%, COc1ccc(/C=N/NC(=O)c2ccco2)cc1OCc1ccccc1 3.95%, COc1ccccc1NC(=O)OCC#CCOC(=O)Nc1ccccc1OC -16.1%, COc1cc(OC)c(OC)cc1/C=C1\Oc2cc(OS(C)(=O)=O)ccc2C1=O 29.9%, COC(=O)Cc1[nH]c(=S)[nH]c1C(=O)OC -6.39%, O=C(CSc1nnc2n1CCCN2)c1ccccc1 -10.6%, O=C(CCl)N(CCCNC(=O)C(F)(F)F)c1ccc([N+](=O)[O-])cc1 6.57%, CN(C)S(=O)(=O)Nc1cccc(Br)c1 7.51%, CN(C)c1cc(-c2ccc(Cl)cc2Cl)oc(=O)c1Cl 32.5%, Cc1ccc(F)cc1NC(=O)N1c2ccccc2NC(=O)CC1C (stereo not given) 0.636%, CC1=C(O)C(=O)OC1c1c(Cl)cccc1Cl (stereo not given) 8.99%, COc1ccc(C2=NOC(CNC(=O)c3ccccc3Br)C2)c(OC)c1 (stereo not given) -0.477%, O=C(Nc1ccccc1)Nc1ccc(C(F)(F)F)cn1 2.47%, C/C(=N\NC(=O)CCc1c(C)n[nH]c1C)c1ccc([N+](=O)[O-])cc1 32.1%, CCc1cc2c3c(c1)C(C)CC(C)(C)N3C(=O)/C2=C1\SC(=O)NC1=O (stereo not given) -22.1%, Cc1cc(C(=O)NNS(=O)(=O)c2ccc(C(C)(C)C)cc2)nn1C(C)(C)C 10.6%, COc1ccc(CCNS(=O)(=O)c2cnc(Cl)c(Br)c2)cc1OC -3.52%, c1ccc(-c2ccc(C3=Nn4c(nnc4-c4cccs4)SC3)cc2)cc1 2.54%, CN(C)c1ccc(NC(=O)Nc2csc3ccccc23)cc1 -4.5%, O=C(c1cc(Cl)cc(Cl)c1)N1CCN(c2cc(C(F)(F)F)nc3ccccc23)CC1 -4.37%, O=C(COC(=O)c1cc(S(=O)(=O)N2CCOCC2)ccc1O)Nc1cc(S(=O)(=O)N2CCCC2)ccc1Cl -0.93%, C=CCNC(=S)Nc1c(C(=O)OC)[nH]c2cc(OC)ccc12 -5.57%, Cc1onc2c(=O)n(-c3ccccc3)nc(-c3ccccc3)c12 -0.22%, CCOC(=O)N1CCc2c(sc3nc[nH]c(=O)c23)C1 -10.5%, O=C(Oc1cc(=O)oc2c1c(=O)n1c3c(cccc23)CC1)c1ccccc1 -23.9%, CC1(C)C([N+](=O)[O-])C(c2ccc(F)cc2)NC(c2ccc(F)cc2)C1[N+](=O)[O-] (stereo not given) 0.0612%, COc1ccc(/C=N/NC(=O)c2cnccn2)c(OC)c1OC 16.7%, Cc1cc(C)c(NC(N)=S)c(C)c1 -2.94%, Cc1[nH]ncc1-c1ccccc1Cl -3.61%, O=S(=O)(Nc1nc(SCc2ccc(Cl)cc2)n[nH]1)c1ccc(F)cc1 -7.77%, O=C(Cc1ccccc1)Nc1c(Cl)ccc2nsnc12 43.7%, CCC(C)NC(=S)Nc1ccccc1 (stereo not given) -4.94%, Cc1ccc(-c2cc(-c3c(C)nn(C)c(=O)c3N)[nH]n2)cc1 30.9%, COc1ccc2[nH]c(=O)c(CN(C(=O)C3CCCO3)c3ccc(C)c(C)c3)cc2c1 (stereo not given) 15.5%, COc1cc(C2C(C#N)=C(N)OC3=C2C(=O)CC(C)(C)C3)ccc1OCCN1CCOCC1 (stereo not given) -3.76%, O=S(=O)(c1cccc(F)c1)N1CCc2sccc2C1c1ccc(OC(F)(F)F)cc1 (stereo not given) -1.76%, O=C(O)c1ccccc1N/N=C/C1=C(N2CCOCC2)C(=C\c2ccccc2)/CC1 -13.9%, CN(C)c1ccc(C2CC(=O)C=C(Nc3ccccc3N)C2)cc1 (stereo not given) 9.93%, CCOC(=O)c1cnc2c(C(=O)OCC)cnn2c1N -0.967%, Cc1cc(C(=O)NNS(=O)(=O)c2cccc(Cl)c2)nn1C(C)(C)C -4.73%, Nc1cc(Nc2ccc(Br)cc2)nc(N)n1 3.46%, O=[N+]([O-])c1sccc1CS(=O)(=O)c1ccccc1 71.5%, CC(C)(C)C1CCC(OC(=O)CN2CCCCC2)CC1 (stereo not given) -7.93%, Cc1ccnc(SCCn2c(N3CCN(C)CC3)nc3c2c(=O)n(C)c(=O)n3C)n1 0.893%, O=C(N/N=C/c1ccncc1)c1cnccn1 27.7%, COc1ccc(C(=O)CN2C(=O)c3ccccc3C2=O)cc1 24%, CCCc1cc(NCc2ccccn2)n2nc(C)c(-c3ccccc3)c2n1 -5.29%, COC(=O)c1[nH]c2ccccc2c1NC(=O)c1c(F)cccc1F 0.0979%, CCCc1nc2sc3ccccc3c(=O)c2c(=O)n1Cc1ccc(OC)cc1 2.61%, Cc1c(-c2ccc(Cl)cc2)[n+](=O)c2c(n1[O-])CCCC2 25.6%, Nc1nccc(/C=C/c2c(Cl)cccc2Cl)n1 0.0245%, O=C(O)c1nccnc1C(=O)Nc1ccc(Oc2c(Cl)cccc2Cl)nc1 14%, Nc1cc(N)nc(CS)n1 11.3%, Cc1cc(=O)[nH]c2c1c(C)nn2C(C)(C)C -9.76%, CC(=O)/C(N=Nc1ccc(-n2ccc(C(F)(F)F)n2)cc1)=C(\C)O 14.8%, CCCCC1C2C(=O)N(c3ccccc3)C(=O)C2ON1c1ccccc1 (stereo not given) -6.53%, CN1C(=CC=C2C=C(I)C(=O)C(I)=C2)C(C)(C)c2ccccc21 57.4%, O=C(/C=C/c1ccccc1)c1c[nH]c2ccccc12 -2.63%, Brc1ccc2oc(-c3ccn[nH]3)cc2c1 6.92%, Cc1ccc(S(=O)(=O)NNC(=S)NC(C)(C)C)cc1 -2.83%, Cc1ccnn1CC(=O)N/N=C/c1ccc([N+](=O)[O-])s1 -18.3%, CN(C)CCCNc1cc(C(C)(C)C)nc2c(-c3ccc(Cl)cc3)cnn12 -1.05%, S=c1[nH]nc(-c2cccs2)n1C1CCCCC1 -14.4%, COc1ccccc1/C=C/C=N/NC(=O)CCn1cnc2ccccc21 17%, NC(=O)N/N=C/CCc1ccccc1 -10.9%, COc1ccc(/C(C)=N/NC(=O)CNC(=O)Cc2ccccc2)c(OC)c1 -5.21%, CN(C(=O)Nc1ccccc1)n1cnc2ccccc2c1=O 10.4%, CCOC(=O)N1CCc2c(sc(NC(=O)CN(CC)CC)c2C#N)C1 -1.05%, CN1C(=O)N(c2nnc(C(C)(C)C)s2)C(=O)C1c1ccccc1 (stereo not given) 1.93%, COc1c(/C=N/NC(=O)c2ccncc2)c(CCN(C)C(C)=O)cc2c1OCO2 -7.29%, Cn1ncc2c(c(SCc3ccc(Cl)cc3Cl)nn2C)c1=O 16.1%, O=[N+]([O-])c1ccccc1CSc1ccccn1 21.1%, Cn1c(=O)c2cc3ccccc3nc2n(C)c1=O 10%, COc1ccc(CCN(C)CCC(=O)Nc2cccc(C)c2)cc1OC -2.75%, CN(C)CCc1c[nH]c2ccc(CC3COC(=O)N3)cc12 (stereo not given) 13.7%, CCNC(=S)N1N=C2c3ccccc3CCC2C1c1ccc(F)cc1 (stereo not given) 6.61%, CCNC(=S)NNc1ccccc1 0.232%, CN(c1cnn(-c2ccccc2)c(=O)c1Cl)n1cccc1 -10.8%, Cc1ccc(C(CCNC(C)c2cccs2)c2ccco2)cc1 (stereo not given) 3.18%, Cc1ccc(-n2[nH]c(C)c(/C=N/c3cccc(C)n3)c2=O)cc1 7.07%, O=[N+]([O-])c1ccc(C2CC(c3ccccc3)=Nc3ccccc3S2)cc1 (stereo not given) 25.5%, O=C(O)/C(=C\c1ccccc1)c1ccccc1 14%, CCCSc1cc(Cl)nc(N)n1 -0.0734%, CC(C)(C)OC(=O)N1CCC[C@H]1c1nnc(SCc2ccccc2)o1 6.12%, Cc1ccc(CN(C(=O)c2cc(=O)c3cc(C)cc(C)c3o2)C2CCS(=O)(=O)C2)cc1 (stereo not given) 1.6%, CC(C)(C)OC(=O)N1CCCN(C(=O)Nc2cccc(Cl)c2)CC1 -9.47%, CCOC(=O)N1CCC(NS(=O)(=O)c2ccccc2)CC1 -10%, COc1ccc(CN(Cc2cccn2C)S(=O)(=O)c2ccc(F)cc2)cc1 -6.48%, O=C(O)C1CCc2sc3[nH]c(=S)n(-c4ccccc4)c(=O)c3c21 (stereo not given) 12.3%, CC1CCc2c(sc(NC(=O)Cn3nc(C(=O)O)c4ccccc4c3=O)c2C#N)C1 (stereo not given) -3.21%, CCCCNC(=O)Nc1ccccc1CC 6.62%, CCN(CC)CCN1C(=O)C(=O)/C(=C(/O)c2ccc3c(c2)CC(C)O3)C1c1ccc(OC)cc1 (stereo not given) 8.96%

Potency, active:
NC(Cc1ccc(O)c(O)c1)C(=O)O (stereo not given) 891 nM
